Results on 4 substances are retold here after paper PMC6500973.

Protein sequences, listed by entry. Tags and fused reporters are not part of them.
UniProt P51532: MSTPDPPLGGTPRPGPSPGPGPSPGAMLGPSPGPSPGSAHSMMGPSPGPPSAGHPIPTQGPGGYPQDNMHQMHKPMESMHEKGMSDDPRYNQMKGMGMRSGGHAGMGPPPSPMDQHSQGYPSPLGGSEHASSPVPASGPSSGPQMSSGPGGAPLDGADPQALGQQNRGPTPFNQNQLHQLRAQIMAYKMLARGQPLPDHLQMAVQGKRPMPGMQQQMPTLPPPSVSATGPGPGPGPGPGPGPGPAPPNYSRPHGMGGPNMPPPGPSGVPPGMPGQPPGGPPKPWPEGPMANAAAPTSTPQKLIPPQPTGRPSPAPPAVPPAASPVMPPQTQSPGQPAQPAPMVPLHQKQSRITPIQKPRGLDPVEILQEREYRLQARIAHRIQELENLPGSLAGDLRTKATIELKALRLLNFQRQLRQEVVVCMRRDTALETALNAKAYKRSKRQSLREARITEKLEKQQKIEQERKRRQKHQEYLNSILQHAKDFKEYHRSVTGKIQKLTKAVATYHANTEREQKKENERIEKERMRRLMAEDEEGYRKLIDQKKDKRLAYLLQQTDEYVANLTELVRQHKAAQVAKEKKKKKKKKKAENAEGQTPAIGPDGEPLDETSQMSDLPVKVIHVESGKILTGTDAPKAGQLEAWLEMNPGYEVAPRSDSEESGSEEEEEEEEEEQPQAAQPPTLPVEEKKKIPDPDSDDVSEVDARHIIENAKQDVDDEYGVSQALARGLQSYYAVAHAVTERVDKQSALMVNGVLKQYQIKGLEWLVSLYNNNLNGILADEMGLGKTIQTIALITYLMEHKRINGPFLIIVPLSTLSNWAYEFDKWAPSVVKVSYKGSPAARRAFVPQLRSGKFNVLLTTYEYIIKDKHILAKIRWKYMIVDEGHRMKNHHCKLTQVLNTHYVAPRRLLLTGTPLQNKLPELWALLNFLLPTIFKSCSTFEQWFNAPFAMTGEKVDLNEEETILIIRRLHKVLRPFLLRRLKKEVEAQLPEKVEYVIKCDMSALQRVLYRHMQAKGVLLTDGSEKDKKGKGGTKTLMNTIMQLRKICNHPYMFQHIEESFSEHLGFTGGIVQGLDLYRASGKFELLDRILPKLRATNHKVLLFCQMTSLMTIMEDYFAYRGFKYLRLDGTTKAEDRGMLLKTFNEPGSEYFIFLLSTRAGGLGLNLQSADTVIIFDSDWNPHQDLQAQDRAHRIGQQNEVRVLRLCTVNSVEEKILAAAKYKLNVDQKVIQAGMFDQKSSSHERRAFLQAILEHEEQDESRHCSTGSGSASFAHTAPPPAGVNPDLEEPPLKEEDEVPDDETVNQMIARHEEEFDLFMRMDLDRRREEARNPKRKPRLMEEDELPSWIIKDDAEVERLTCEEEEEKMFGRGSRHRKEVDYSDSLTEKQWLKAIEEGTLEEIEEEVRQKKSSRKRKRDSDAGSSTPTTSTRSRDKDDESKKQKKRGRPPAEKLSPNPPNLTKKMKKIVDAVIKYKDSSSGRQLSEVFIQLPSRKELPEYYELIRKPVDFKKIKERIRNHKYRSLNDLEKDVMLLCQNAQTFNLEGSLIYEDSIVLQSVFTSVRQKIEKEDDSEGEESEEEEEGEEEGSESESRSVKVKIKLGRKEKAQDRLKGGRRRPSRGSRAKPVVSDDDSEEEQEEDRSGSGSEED
UniProt O14497: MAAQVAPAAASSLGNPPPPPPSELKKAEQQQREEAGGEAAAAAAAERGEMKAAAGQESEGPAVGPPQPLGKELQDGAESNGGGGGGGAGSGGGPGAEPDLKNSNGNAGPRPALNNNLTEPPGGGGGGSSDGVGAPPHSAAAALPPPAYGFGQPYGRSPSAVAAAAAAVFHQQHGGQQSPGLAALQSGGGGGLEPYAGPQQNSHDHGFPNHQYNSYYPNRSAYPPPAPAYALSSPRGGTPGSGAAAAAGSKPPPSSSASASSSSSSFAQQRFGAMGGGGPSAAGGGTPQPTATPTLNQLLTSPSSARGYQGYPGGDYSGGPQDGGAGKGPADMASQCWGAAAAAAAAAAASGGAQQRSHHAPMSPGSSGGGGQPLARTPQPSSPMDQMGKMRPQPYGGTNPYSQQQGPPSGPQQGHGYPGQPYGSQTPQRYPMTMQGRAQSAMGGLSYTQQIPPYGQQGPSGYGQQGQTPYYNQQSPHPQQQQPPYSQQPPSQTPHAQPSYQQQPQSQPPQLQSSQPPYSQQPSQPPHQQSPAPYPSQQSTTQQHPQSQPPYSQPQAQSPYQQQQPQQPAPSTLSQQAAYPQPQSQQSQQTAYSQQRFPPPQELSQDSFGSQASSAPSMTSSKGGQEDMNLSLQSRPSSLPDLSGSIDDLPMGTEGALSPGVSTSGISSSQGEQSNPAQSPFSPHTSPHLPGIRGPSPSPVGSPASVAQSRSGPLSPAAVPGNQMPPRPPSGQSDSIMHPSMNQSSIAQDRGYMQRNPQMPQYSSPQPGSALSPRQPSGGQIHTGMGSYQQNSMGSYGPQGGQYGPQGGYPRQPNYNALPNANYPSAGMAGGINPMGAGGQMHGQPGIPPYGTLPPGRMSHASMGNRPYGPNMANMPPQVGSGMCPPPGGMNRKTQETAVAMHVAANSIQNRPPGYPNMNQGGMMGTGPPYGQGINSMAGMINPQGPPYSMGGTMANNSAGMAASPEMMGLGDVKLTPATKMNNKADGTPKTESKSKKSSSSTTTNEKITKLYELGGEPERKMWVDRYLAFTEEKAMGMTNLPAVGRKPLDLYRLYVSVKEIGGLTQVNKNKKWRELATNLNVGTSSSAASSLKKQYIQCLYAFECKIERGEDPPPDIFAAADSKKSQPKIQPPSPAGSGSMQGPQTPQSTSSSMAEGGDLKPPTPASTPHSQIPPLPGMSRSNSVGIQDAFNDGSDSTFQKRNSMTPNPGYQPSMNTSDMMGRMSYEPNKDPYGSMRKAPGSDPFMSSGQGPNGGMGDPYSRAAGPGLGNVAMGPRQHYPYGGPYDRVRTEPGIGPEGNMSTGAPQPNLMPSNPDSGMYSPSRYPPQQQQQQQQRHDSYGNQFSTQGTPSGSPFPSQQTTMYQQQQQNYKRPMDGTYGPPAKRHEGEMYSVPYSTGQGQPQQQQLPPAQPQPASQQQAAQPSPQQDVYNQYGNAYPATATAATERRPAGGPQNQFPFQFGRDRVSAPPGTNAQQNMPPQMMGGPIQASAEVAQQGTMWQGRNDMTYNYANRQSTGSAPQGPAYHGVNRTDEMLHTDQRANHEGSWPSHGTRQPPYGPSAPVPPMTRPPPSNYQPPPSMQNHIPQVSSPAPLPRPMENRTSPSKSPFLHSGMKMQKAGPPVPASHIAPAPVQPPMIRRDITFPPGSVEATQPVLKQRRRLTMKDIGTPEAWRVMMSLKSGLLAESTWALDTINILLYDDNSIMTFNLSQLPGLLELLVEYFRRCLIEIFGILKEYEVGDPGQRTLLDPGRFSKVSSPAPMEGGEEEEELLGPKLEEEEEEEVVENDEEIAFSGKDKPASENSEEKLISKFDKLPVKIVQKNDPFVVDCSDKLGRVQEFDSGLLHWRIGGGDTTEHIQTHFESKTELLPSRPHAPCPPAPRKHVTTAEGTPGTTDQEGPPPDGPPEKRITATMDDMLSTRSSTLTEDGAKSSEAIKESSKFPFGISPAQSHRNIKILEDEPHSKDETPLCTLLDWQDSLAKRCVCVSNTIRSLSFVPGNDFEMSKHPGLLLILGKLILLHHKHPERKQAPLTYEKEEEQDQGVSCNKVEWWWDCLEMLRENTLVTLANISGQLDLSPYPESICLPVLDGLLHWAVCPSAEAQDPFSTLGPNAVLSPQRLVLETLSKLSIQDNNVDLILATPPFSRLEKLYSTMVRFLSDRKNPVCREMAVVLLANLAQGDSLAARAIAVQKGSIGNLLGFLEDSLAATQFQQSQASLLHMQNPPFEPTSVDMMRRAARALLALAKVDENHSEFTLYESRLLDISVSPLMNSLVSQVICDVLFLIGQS
UniProt P35638: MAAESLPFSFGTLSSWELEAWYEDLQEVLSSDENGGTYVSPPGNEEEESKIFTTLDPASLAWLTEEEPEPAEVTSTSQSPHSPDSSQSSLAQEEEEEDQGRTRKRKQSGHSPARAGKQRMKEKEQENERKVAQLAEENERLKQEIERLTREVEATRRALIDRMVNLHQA
UniProt Q01844: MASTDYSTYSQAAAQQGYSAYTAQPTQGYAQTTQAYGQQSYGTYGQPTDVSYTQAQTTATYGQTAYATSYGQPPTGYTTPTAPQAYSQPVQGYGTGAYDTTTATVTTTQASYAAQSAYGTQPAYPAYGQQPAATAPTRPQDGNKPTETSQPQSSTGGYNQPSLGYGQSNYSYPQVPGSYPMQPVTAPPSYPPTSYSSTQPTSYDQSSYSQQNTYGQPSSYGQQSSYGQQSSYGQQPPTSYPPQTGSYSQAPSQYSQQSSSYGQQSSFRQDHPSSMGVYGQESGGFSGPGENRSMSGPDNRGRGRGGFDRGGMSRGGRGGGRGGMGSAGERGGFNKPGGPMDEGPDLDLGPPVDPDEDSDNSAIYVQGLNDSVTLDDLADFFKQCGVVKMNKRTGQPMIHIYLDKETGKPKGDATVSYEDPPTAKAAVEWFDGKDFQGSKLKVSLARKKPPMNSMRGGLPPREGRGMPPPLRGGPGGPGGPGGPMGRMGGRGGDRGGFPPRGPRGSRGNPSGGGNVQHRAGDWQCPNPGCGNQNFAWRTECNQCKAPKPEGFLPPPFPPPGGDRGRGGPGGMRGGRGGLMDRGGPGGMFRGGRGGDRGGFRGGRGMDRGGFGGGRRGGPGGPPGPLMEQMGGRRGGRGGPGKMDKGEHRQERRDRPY
UniProt P35637: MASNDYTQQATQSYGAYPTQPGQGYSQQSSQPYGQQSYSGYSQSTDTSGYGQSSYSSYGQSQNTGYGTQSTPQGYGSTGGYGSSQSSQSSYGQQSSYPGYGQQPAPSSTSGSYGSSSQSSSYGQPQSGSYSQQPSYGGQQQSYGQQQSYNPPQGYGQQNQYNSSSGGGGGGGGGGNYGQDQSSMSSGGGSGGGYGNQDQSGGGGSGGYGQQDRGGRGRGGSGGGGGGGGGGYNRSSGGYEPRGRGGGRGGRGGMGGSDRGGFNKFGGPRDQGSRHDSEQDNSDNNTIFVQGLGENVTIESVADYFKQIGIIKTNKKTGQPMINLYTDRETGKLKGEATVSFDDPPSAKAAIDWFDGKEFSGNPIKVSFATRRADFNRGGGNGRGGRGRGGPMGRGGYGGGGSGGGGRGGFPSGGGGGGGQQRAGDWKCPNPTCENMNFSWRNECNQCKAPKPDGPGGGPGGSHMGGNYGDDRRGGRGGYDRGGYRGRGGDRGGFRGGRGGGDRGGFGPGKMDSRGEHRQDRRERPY
UniProt Q15532: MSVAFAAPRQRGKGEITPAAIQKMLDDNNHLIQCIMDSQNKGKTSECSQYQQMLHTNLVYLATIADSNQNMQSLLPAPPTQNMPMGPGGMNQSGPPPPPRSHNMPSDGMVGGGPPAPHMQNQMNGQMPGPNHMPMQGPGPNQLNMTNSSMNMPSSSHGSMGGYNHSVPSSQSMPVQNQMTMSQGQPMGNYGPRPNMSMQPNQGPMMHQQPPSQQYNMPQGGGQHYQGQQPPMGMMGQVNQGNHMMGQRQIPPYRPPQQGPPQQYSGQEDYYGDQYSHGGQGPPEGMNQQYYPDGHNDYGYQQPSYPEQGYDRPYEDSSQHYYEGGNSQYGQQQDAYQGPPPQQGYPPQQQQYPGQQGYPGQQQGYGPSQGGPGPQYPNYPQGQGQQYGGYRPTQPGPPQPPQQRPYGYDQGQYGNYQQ

These are yes or no findings as the source states them, for the method shown. Binding seen in cells or lysates may run through a third protein. Some binding calls cover weakened binding; strength is not graded here.

Assay [1] addresses BRG1 (human (endogenous in Raji, MLS, EWS and HT1080 cell lines)) (UniProt P51532). The assay can be described thus: co-IP; BRG1 IP from nuclear extracts of HT1080 with stable expression of FUS-DDIT3-EGFP or DDIT3-EGFP; negative control IgG; immunoblot with antibodies against BRG1 and DDIT3. Background: In western blotting, separated proteins are transferred to a membrane and probed.

Assay [2] has the same target. Nature of the assay: co-IP; BRG1 IP quantification: 100 ug nuclear extract of MLS 402-91 or EWS TC-71, Benzonase during cell disruption, washes in IP wash buffer (150 mM KCl), LDS elution; immunoblot of input, bound and non-bound fractions.
Assay [3] shares this target. The assay can be described thus: co-IP; BRG1 IP quantification from nuclear extracts of HT1080 24 h after transient transfection with FUS-DDIT3-dsRED/-EGFP, EWSR1-FLI1-EGFP or dsRED/EGFP alone; immunoblot of input, bound and non-bound fractions.
Assay [4] has the same target. Nature of the assay: co-IP; biotinylated anti-BRG1 antibody and streptavidin Dynabeads on nuclear extracts of MLS 402-91, MLS 2645-94, EWS TC-71 and EWS IOR/CAR; elution with 1% formic acid, then with LDS sample buffer; immunoblot.
Assay [5] shares this target. Nature of the assay: proximity ligation; in situ PLA (Duolink) on formaldehyde-fixed MLS cell lines 2645-94 and 402-91 with pairs of primary antibodies against BRG1 or ARID1A and DDIT3 or the C-terminal part of FUS; controls with one primary antibody omitted.
Assay [6] concerns the target ARID1A (human (endogenous in Raji, MLS and EWS cell lines)) (UniProt O14497). The assay is described as above.

With DDIT3‐EGFP (from UniProt P35638 1-169), in assay [1], the binding entry was “binds weakly”.

Take EWSR1 (from UniProt Q01844 1-656): the binding result in assay [2], in assay [3] and in assay [4] was “binds” throughout.

As to FUS (from UniProt P35637 1-526), the binding result in assay [2], in assay [3], in assay [5] and in assay [6] was “binds” each time.

Regarding SS18 (from UniProt Q15532 1-418), the binding entry in assay [4] is given as “binds”.
